Test results reported in paper PMC8888634.
Results are given in words; binding and its absence hold for the method and conditions named. In cells and extracts the contact can be indirect. These calls come from enrichment with a bait or labelling near it, and not all partners need be listed. Where a sequence is shown, tags or fusion partners need not be part of it.

Sequences of proteins named here, by UniProt entry; tags and fusion partners are left off.
UniProt P10275: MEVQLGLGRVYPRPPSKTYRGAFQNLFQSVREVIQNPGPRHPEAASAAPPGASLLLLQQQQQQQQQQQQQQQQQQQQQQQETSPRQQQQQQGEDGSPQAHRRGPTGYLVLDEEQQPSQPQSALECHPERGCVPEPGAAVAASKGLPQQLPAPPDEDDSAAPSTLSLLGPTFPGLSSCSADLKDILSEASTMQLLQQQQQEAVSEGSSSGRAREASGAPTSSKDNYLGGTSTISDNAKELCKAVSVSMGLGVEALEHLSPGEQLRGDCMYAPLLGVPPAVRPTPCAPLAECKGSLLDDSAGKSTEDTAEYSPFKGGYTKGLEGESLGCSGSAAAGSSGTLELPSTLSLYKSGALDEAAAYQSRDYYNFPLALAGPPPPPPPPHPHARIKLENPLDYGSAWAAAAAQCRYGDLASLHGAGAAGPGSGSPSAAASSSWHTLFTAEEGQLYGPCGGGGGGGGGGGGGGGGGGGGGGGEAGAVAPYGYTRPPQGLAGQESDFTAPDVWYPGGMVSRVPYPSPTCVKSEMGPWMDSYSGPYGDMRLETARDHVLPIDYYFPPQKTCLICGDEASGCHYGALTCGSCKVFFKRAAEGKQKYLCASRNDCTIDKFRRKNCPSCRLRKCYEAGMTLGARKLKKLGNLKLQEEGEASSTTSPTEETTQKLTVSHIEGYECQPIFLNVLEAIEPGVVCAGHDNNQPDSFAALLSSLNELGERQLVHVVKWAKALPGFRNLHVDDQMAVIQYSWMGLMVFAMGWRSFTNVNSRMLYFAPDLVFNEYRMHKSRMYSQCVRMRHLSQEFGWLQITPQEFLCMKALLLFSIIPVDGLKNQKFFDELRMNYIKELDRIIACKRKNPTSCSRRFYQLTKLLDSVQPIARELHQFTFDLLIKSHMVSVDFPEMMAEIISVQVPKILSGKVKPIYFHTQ
UniProt P51532: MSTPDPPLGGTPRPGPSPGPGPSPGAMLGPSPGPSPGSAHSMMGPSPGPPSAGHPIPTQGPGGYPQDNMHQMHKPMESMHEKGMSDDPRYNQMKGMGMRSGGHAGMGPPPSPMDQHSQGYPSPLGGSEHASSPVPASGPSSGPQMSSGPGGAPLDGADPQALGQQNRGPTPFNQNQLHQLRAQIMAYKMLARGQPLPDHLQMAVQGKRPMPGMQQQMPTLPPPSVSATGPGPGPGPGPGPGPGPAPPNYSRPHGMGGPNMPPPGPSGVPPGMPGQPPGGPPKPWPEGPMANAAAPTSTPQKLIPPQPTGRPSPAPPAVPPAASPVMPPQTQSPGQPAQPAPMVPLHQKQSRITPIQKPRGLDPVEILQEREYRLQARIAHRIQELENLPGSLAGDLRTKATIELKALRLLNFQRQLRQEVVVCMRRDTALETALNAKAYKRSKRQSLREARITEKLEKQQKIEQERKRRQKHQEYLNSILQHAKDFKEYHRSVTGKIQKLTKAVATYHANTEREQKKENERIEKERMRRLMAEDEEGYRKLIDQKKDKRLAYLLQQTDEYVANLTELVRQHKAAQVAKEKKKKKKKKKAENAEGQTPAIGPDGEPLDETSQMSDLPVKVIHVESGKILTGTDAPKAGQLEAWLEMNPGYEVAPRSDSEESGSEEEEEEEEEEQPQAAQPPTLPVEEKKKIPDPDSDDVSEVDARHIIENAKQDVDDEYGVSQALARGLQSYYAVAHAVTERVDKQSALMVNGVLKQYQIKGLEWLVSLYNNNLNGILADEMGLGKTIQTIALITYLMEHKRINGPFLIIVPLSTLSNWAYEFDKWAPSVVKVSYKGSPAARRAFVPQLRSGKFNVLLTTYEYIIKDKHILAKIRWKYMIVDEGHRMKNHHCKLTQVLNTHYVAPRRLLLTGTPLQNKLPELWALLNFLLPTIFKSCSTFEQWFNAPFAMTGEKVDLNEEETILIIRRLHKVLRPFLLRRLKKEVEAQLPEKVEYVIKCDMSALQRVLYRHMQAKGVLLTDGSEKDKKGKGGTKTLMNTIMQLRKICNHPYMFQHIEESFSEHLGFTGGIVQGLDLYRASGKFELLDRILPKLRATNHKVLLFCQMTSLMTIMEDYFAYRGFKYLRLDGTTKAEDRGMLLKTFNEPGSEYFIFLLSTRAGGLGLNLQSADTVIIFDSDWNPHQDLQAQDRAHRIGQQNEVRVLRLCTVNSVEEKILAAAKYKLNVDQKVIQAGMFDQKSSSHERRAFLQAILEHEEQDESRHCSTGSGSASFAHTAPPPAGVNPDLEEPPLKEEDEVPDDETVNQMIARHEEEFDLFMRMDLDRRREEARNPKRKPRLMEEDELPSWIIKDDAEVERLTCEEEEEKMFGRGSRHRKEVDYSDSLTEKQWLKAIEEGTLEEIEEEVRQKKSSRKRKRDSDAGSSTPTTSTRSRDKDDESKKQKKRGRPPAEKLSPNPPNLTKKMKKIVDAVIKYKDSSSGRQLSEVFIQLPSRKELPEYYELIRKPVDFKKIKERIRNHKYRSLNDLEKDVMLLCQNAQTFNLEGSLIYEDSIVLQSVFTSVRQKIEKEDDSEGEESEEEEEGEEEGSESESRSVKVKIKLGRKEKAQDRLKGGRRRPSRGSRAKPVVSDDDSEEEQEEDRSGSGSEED

Molecular target: T1, Flag-OTUD6A (ovarian tumor deubiquitinase 6A), introduced into VCaP and PC-3 cells (human) (UniProt Q7L8S5)
T1 sequence: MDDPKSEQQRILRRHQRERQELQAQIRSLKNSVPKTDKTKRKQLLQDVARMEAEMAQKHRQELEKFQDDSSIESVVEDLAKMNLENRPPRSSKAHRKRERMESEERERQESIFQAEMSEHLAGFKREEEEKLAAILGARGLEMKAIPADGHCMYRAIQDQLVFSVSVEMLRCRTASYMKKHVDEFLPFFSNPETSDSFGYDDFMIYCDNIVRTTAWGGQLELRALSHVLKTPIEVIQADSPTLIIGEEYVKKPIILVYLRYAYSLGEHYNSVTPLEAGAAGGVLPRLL
Experiment: affinity purification with mass spectrometry; Flag-OTUD6A introduced into VCaP and PC-3 cells; Flag-M2 IP; associated proteins analysed by Easy-nLC 1200 and Orbitrap Exploris 480

Substance | binding
AR (androgen receptor), endogenous in prostate cancer cells (from UniProt P10275 1-920) | binds
Brg1, the ATPase subunit of the SWI/SNF chromatin remodeling complex, endogenous in prostate cancer cells (from UniProt P51532 1-1647) | binds
